Experimental data published in article PMC11018632, “The CB1 receptor interacts with cereblon and drives cereblon deficiency-associated memory shortfalls” (EMBO Molecular Medicine, 2024).

Sequences of proteins named here, by UniProt entry; tags and fusion partners are left off. A change or cut given only in a name is not applied to a line headed by its entry.
UniProt Q96SW2: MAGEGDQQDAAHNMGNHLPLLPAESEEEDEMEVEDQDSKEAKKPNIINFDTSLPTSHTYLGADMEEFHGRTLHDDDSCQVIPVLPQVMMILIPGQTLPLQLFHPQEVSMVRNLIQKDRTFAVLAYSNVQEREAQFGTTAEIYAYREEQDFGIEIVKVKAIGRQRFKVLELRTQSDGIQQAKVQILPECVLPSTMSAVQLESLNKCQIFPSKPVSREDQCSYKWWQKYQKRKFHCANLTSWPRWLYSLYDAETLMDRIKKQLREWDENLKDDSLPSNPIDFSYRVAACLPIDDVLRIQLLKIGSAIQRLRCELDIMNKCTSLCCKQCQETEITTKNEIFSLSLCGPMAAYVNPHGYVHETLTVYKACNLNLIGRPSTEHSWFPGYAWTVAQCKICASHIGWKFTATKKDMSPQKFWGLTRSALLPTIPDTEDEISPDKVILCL
UniProt P21554: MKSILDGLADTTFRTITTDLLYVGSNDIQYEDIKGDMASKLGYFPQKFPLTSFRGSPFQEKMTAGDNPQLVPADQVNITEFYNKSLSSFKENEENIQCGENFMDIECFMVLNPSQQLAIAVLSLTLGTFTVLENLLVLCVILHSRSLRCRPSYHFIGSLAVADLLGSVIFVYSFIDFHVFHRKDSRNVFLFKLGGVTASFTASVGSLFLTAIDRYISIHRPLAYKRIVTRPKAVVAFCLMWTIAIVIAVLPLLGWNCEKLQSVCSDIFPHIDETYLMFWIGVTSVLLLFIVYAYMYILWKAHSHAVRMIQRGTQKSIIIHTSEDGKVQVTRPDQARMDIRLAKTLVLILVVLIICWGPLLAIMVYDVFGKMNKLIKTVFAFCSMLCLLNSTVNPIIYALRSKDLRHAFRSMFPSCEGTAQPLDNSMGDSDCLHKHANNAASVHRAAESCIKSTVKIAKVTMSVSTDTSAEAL
UniProt Q13619: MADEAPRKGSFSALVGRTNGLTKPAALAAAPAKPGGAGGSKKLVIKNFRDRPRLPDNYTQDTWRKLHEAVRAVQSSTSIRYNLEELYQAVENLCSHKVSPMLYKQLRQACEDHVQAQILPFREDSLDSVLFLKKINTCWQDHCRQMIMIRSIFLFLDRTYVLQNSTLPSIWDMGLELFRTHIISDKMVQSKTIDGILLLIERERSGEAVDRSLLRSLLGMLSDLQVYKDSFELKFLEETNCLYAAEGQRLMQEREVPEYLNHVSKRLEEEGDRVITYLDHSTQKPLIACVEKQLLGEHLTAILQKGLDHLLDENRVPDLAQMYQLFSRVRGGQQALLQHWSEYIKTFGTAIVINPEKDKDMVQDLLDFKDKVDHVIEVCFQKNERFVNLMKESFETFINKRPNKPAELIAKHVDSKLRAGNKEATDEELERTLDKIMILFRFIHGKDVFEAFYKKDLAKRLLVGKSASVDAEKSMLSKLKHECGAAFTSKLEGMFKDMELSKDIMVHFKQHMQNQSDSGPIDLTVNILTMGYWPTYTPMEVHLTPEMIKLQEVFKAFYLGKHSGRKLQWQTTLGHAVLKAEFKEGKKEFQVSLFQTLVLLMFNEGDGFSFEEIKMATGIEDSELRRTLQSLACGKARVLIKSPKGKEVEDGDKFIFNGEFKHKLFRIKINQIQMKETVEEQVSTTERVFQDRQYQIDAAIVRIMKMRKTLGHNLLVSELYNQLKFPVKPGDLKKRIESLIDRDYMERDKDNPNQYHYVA

Tests used:
[1] = molecular target: human HA-CRBN-ΔRGS (human) (UniProt Q96SW2); assay: co-IP; HEK-293T cells, transfected; lysates in GST buffer (50 mM Tris-HCl, 10% glycerol, 100 mM NaCl, 2 mM MgCl2, 1% NP-40, pH 7.4); IP with anti-HA agarose
[2] = molecular target: human 3xFLAG-CB1R (human) (UniProt P21554); assay: co-IP; HEK-293T cells, transfected; lysates in GST buffer (50 mM Tris-HCl, 10% glycerol, 100 mM NaCl, 2 mM MgCl2, 1% NP-40, pH 7.4); IP with anti-FLAG M2 agarose

binding [1] | binding [2] | Substance
no binding |  | V5-tagged human Cullin-4a (from UniProt Q13619 1-759)
 | binds | human HA-CRBN-ΔRGS (from UniProt Q96SW2)

Results are given in words; binding and its absence hold for the method and conditions named. Binding seen in cells or lysates may run through a third protein. For some assays here: A result given as binding can be weak or reduced; the word gives no strength.
